Results are given in words; binding and its absence hold for the method and conditions named. For part of these data: In cells and extracts the contact can be indirect. Some entries that bind do so weakly or less than the wild type. For part of these data: Where a sequence is shown, tags or fusion partners need not be part of it.
Experiments:
[1] = target: T1, Human Dlk2 with DKK tag, over-expressed in MCF-7 (human) (UniProt Q6UY11); assay: co-IP
T1 sequence: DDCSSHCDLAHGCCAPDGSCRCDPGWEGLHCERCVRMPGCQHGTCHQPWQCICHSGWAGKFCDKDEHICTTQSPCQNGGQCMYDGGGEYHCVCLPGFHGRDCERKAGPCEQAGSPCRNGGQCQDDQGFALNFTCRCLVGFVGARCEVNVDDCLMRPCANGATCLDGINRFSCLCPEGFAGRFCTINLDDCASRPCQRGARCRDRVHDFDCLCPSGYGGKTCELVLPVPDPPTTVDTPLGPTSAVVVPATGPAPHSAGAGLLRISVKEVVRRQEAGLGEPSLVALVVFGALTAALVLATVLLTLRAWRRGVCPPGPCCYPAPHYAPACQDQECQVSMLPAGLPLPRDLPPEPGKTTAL

[2] = target: T2, Dlk2 (endogenous, MCF-7 cells) (human (endogenous in MCF-7)) (UniProt Q6UY11); assay: co-IP
T2 sequence: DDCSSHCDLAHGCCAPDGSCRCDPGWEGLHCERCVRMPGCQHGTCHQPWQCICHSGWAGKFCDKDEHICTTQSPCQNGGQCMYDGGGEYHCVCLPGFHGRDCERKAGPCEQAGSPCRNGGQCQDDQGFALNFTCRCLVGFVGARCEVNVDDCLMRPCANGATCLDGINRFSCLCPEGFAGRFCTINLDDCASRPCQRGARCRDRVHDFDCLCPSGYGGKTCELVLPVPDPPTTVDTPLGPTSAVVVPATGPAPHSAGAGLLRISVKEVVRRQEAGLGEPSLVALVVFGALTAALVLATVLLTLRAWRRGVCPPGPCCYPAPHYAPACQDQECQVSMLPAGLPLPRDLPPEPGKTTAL

[3] = target: T3, Human Dlk2 full length (human) (UniProt Q6UY11); assay: SPR
T3 sequence: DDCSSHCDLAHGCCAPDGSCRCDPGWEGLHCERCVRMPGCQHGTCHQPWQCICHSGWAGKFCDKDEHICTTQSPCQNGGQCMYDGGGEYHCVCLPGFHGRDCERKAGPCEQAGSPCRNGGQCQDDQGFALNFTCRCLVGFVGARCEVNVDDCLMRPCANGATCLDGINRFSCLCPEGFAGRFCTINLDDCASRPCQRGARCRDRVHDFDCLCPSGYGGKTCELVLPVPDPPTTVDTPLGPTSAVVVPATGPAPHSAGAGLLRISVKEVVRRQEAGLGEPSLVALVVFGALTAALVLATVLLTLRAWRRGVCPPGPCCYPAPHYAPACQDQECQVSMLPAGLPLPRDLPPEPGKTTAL

[4] = target: T4, Human Dlk2 extracellular domain (Dlk2EC, residues 1-306) (human) (UniProt Q6UY11); assay: SPR
T4 sequence: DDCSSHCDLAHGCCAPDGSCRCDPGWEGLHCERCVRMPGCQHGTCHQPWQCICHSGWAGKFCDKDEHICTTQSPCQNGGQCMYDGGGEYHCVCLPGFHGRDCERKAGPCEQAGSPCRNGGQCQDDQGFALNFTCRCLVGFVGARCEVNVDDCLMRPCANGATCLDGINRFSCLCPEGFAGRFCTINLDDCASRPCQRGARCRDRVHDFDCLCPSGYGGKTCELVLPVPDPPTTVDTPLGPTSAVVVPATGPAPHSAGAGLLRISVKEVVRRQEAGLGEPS

B1: Numb (endogenous, MCF-7 cells) (protein, UniProt P49757 1-651)
chain: MNKLRQSFRRKKDVYVPEASRPHQWQTDEEGVRTGKCSFPVKYLGHVEVDESRGMHICEDAVKRLKAERKFFKGFFGKTGKKAVKAVLWVSADGLRVVDEKTKDLIVDQTIEKVSFCAPDRNFDRAFSYICRDGTTRRWICHCFMAVKDTGERLSHAVGCAFAACLERKQKREKECGVTATFDASRTTFTREGSFRVTTATEQAEREEIMKQMQDAKKAETDKIVVGSSVAPGNTAPSPSSPTSPTSDATTSLEMNNPHAIPRRHAPIEQLARQGSFRGFPALSQKMSPFKRQLSLRINELPSTMQRKTDFPIKNAVPEVEGEAESISSLCSQITNAFSTPEDPFSSAPMTKPVTVVAPQSPTFQANGTDSAFHVLAKPAHTALAPVAMPVRETNPWAHAPDAANKEIAATCSGTEWGQSSGAASPGLFQAGHRRTPSEADRWLEEVSKSVRAQQPQASAAPLQPVLQPPPPTAISQPASPFQGNAFLTSQPVPVGVVPALQPAFVPAQSYPVANGMPYPAPNVPVVGITPSQMVANVFGTAGHPQAAHPHQSPSLVRQQTFPHYEASSATTSPFFKPPAQHLNGSAAFNGVDDGRLASADRHTEVPTGTCPVDPFEAQWAALENKSKQRTNPSPTNPFSSDLQKTFEIEL
In the case of B1, the binding [1] is reported as “binds” and the binding [2] is reported as “binds”.

B2: Human Numb full-length (protein, UniProt P49757 1-651)
chain: MNKLRQSFRRKKDVYVPEASRPHQWQTDEEGVRTGKCSFPVKYLGHVEVDESRGMHICEDAVKRLKAERKFFKGFFGKTGKKAVKAVLWVSADGLRVVDEKTKDLIVDQTIEKVSFCAPDRNFDRAFSYICRDGTTRRWICHCFMAVKDTGERLSHAVGCAFAACLERKQKREKECGVTATFDASRTTFTREGSFRVTTATEQAEREEIMKQMQDAKKAETDKIVVGSSVAPGNTAPSPSSPTSPTSDATTSLEMNNPHAIPRRHAPIEQLARQGSFRGFPALSQKMSPFKRQLSLRINELPSTMQRKTDFPIKNAVPEVEGEAESISSLCSQITNAFSTPEDPFSSAPMTKPVTVVAPQSPTFQANGTDSAFHVLAKPAHTALAPVAMPVRETNPWAHAPDAANKEIAATCSGTEWGQSSGAASPGLFQAGHRRTPSEADRWLEEVSKSVRAQQPQASAAPLQPVLQPPPPTAISQPASPFQGNAFLTSQPVPVGVVPALQPAFVPAQSYPVANGMPYPAPNVPVVGITPSQMVANVFGTAGHPQAAHPHQSPSLVRQQTFPHYEASSATTSPFFKPPAQHLNGSAAFNGVDDGRLASADRHTEVPTGTCPVDPFEAQWAALENKSKQRTNPSPTNPFSSDLQKTFEIEL
In the case of B2, the binding [3] is reported as “binds”.

B3: Human B7-H2-Fc Chimera (Fc fusion, UniProt O75144 19-256)
chain: DTQEKEVRAMVGSDVELSCACPEGSRFDLNDVYVYWQTSESKTVVTYHIPQNSSLENVDSRYRNRALMSPAGMLRGDFSLRLFNVTPQDEQKFHCLVLSQSLGFQEVLSVEVTLHVAANFSVPVVSAPHSPSQDELTFTCTSINGYPRPNVYWINKTDNSLLDQALQNDTVFLNMRGLYDVVSVLRIARTPSVNIGCCIENVLLQQNLTVGSQTGNDIGERDKITENPVSTGEKNAAT
B3 was tested, and the binding [4] was “no binding (tested: 20 nM)”.

B4: Human SNAP43 (SNAPC1) (protein, UniProt Q16533 1-368)
chain: MGTPPGLQTDCEALLSRFQETDSVRFEDFTELWRNMKFGTIFCGRMRNLEKNMFTKEALALAWRYFLPPYTFQIRVGALYLLYGLYNTQLCQPKQKIRVALKDWDEVLKFQQDLVNAQHFDAAYIFRKLRLDRAFHFTAMPKLLSYRMKKKIHRAEVTEEFKDPSDRVMKLITSDVLEEMLNVHDHYQNMKHVISVDKSKPDKALSLIKDDFFDNIKNIVLEHQQWHKDRKNPSLKSKTNDGEEKMEGNSQETERCERAESLAKIKSKAFSVVIQASKSRRHRQVKLDSSDSDSASGQGQVKATRKKEKKERLKPAGRKMSLRNKGNVQNIHKEDKPLSLSMPVITEEEENESLSGTEFTASKKRRKH
B4 was tested, and the binding [4] was “no binding (tested: 20 nM)”.

B5: Human MTERF (MTERF1) (protein, UniProt Q99551 58-399)
chain: FGVKCHNTDSEPLKNEDLLKNLLTMGVDIDMARKRQPGVFHRMITNEQDLKMFLLSKGASKEVIASIISRYPRAITRTPENLSKRWDLWRKIVTSDLEIVNILERSPESFFRSNNNLNLENNIKFLYSVGLTRKCLCRLLTNAPRTFSNSLDLNKQMVEFLQAAGLSLGHNDPADFVRKIIFKNPFILIQSTKRVKANIEFLRSTFNLNSEELLVLICGPGAEILDLSNDYARRSYANIKEKLFSLGCTEEEVQKFVLSYPDVIFLAEKKFNDKIDCLMEENISISQIIENPRVLDSSISTLKSRIKELVNAGCNLSTLNITLLSWSKKRYEAKLKKLSRFA
For B5, the binding [4] was “no binding (tested: 20 nM)”.

— doi:10.1101/2023.07.20.549453 (bioRxiv, 2023)
